From patent US4590166A, “Method for separating and measuring the amount of polar compounds and their metabolites in aqueous solutions” (priority 1983, dated 1986)

Tests used:
[1] = recovery of pyridostigmine from aqueous salt solutions by Sep-Pak and LC (influence of inorganic ions)
[2] = recovery of pyridostigmine bromide added to human plasma (Sep-Pak/LC); conditions: for Pyridostigmine found: 5 ml human plasma, average of 3 determinations; for Recoveries from plasma: human plasma
[3] = recovery of pyridostigmine bromide from glass cartridges containing Corasil II and Sep-Pak C18-silica; conditions: for Acetate-methanol (1 ml), first / Acetate-methanol (1 ml), second / Acetate-methanol (1 ml), third / Methanol wash (5 ml) / Sample eluate (5 ml) / Water wash (5 ml): 45 μg added
[4] = phosphate buffer, 58.2 μg added
[5] = sodium bromide solution, 58.8 μg added
[6] = sodium chloride solution, 59.2 μg added

Question: For `CN(C)C(=O)Oc1ccc[n+](C)c1` [pyridostigmine], which “isolation and quantitation in aqueous sodium hydroxide and sodium carbonate” value ([1]; pH 10-10.5) is on record?
Answer: quantitative and nearly quantitative

Question: What about the “recovery from aqueous solutions (not urine)” value ([1]; pH values 8-9.5) of the same compound?
Answer: can be recovered quantitatively

Question: What about the “% Recovery, acetate-methanol” value ([1]; phosphate buffer) of the same compound?
Answer: 101.7%

Question: And the “% Recovery, total” value ([1]; phosphate buffer)?
Answer: 101.9%

Question: And the “Acetate-methanol (1 ml), first” value [1, 4]?
Answer: 57.1 µg

Question: What about the “Acetate-methanol (1 ml), second” value [1, 4] of the same compound?
Answer: 2.2 µg

Question: What about the “Alcohol wash (5 ml)” value [1, 4] of the same compound?
Answer: 0 µg

Question: What about the “Sample eluate (3 ml)” value [1, 4] of the same compound?
Answer: 0 µg

Question: And the “Water wash (5 ml)” value [1, 4]?
Answer: 0 µg

Question: And the “% Recovery, acetate-methanol” value ([1]; sodium bromide solution)?
Answer: 38.1%

Question: What about the “% Recovery, total” value ([1]; sodium bromide solution) of the same compound?
Answer: 82.1%

Question: What about the “Acetate-methanol (1 ml), first” value [1, 5] of the same compound?
Answer: 18.7 µg

Question: What about the “Acetate-methanol (1 ml), second” value [1, 5] of the same compound?
Answer: 3.7 µg

Question: And the “Alcohol wash (5 ml)” value [1, 5]?
Answer: 25.9 µg

Question: And the “Sample eluate (3 ml)” value [1, 5]?
Answer: 0 µg

Question: And the “Water wash (5 ml)” value [1, 5]?
Answer: 0 µg

Question: And the “% Recovery, acetate-methanol” value ([1]; sodium chloride solution)?
Answer: 46.3%

Question: What about the “% Recovery, total” value ([1]; sodium chloride solution) of the same compound?
Answer: 103.1%

Question: And the “Acetate-methanol (1 ml), first” value [1, 6]?
Answer: 23.4 µg

Question: And the “Acetate-methanol (1 ml), second” value [1, 6]?
Answer: 4.0 µg

Question: And the “Alcohol wash (5 ml)” value [1, 6]?
Answer: 30.9 µg

Question: What about the “Sample eluate (3 ml)” value [1, 6] of the same compound?
Answer: 1.6 µg

Question: What about the “Water wash (5 ml)” value [1, 6] of the same compound?
Answer: 1.7 µg

Question: And the Pyridostigmine found ([2]; 39 ng/ml added)?
Answer: 35 ng/mL

Question: And the Pyridostigmine found ([2]; 78 ng/ml added)?
Answer: 71 ng/mL

Question: And the Pyridostigmine found ([2]; 100 ng/ml added)?
Answer: 107 ng/mL

Question: What about the Pyridostigmine found ([2]; 156 ng/ml added) of the same compound?
Answer: 153 ng/mL

Question: What about the Pyridostigmine found ([2]; 313 ng/ml added) of the same compound?
Answer: 305 ng/mL

Question: What about the Pyridostigmine found ([2]; 400 ng/ml added) of the same compound?
Answer: 390 ng/mL

Question: And the Pyridostigmine found ([2]; 625 ng/ml added)?
Answer: 625 ng/mL

Question: What about the Pyridostigmine found ([2]; 1250 ng/ml added) of the same compound?
Answer: 1312 ng/mL

Question: What about the Pyridostigmine found ([2]; 4000 ng/ml added) of the same compound?
Answer: 4330 ng/mL

Question: And the Recoveries from plasma ([2]; 40-100 ng/ml level)?
Answer: 90-95%

Question: What about the Recoveries from plasma ([2]; 100-5000 ng/ml level) of the same compound?
Answer: 95-100%

Question: And the “% Recovery” value ([3]; Corasil II (aqueous))?
Answer: 2%

Question: And the “Acetate-methanol (1 ml), first” value ([3]; Corasil II (aqueous))?
Answer: 0 µg

Question: And the “Acetate-methanol (1 ml), second” value ([3]; Corasil II (aqueous))?
Answer: 0.4 µg

Question: And the “Acetate-methanol (1 ml), third” value ([3]; Corasil II (aqueous))?
Answer: 0.6 µg

Question: What about the “Methanol wash (5 ml)” value ([3]; Corasil II (aqueous)) of the same compound?
Answer: 0 µg

Question: And the “Sample eluate (5 ml)” value ([3]; Corasil II (aqueous))?
Answer: 0 µg

Question: And the “Water wash (5 ml)” value ([3]; Corasil II (aqueous))?
Answer: 0 µg

Question: And the “% Recovery” value ([3]; Corasil II (pH 10.5))?
Answer: 30%

Question: What about the “Acetate-methanol (1 ml), first” value ([3]; Corasil II (pH 10.5)) of the same compound?
Answer: 6.8 µg

Question: What about the “Acetate-methanol (1 ml), second” value ([3]; Corasil II (pH 10.5)) of the same compound?
Answer: 4.1 µg

Question: And the “Acetate-methanol (1 ml), third” value ([3]; Corasil II (pH 10.5))?
Answer: 2.6 µg

Question: What about the “Methanol wash (5 ml)” value ([3]; Corasil II (pH 10.5)) of the same compound?
Answer: 0 µg

Question: What about the “Sample eluate (5 ml)” value ([3]; Corasil II (pH 10.5)) of the same compound?
Answer: 0 µg

Question: What about the “Water wash (5 ml)” value ([3]; Corasil II (pH 10.5)) of the same compound?
Answer: 0.5 µg

Question: What about the “% Recovery” value ([3]; Sep-Pak (pH 10.5)) of the same compound?
Answer: 103%

Question: And the “Acetate-methanol (1 ml), first” value ([3]; Sep-Pak (pH 10.5))?
Answer: 31.8 µg

Question: What about the “Acetate-methanol (1 ml), second” value ([3]; Sep-Pak (pH 10.5)) of the same compound?
Answer: 12.7 µg

Question: What about the “Acetate-methanol (1 ml), third” value ([3]; Sep-Pak (pH 10.5)) of the same compound?
Answer: 1.7 µg

Question: What about the “Methanol wash (5 ml)” value ([3]; Sep-Pak (pH 10.5)) of the same compound?
Answer: 0.4 µg

Question: And the “Sample eluate (5 ml)” value ([3]; Sep-Pak (pH 10.5))?
Answer: 0.2 µg

Question: And the “Water wash (5 ml)” value ([3]; Sep-Pak (pH 10.5))?
Answer: 0.9 µg
